In US12458629B2, “Method for treating nonsense mutation mediated duchenne muscular dystrophy in pediatric patients” (PTC THERAPEUTICS, INC., priority 2019, dated 2025):

Assay: Palatability questionnaire, NCT02819557
Design: species or system human
Conditions: number (%) of respondents

Compound: O=C(O)c1cccc(-c2noc(-c3ccccc3F)n2)c1 [ataluren, 3-[5-(2-fluoro-phenyl)-[1,2,4]oxadiazol-3-yl]-benzoic acid]
- respondents reporting problems giving the medication to the patient: 2 (14.3%)
- respondents who disagreed that the medication was pleasant: 2 (14.3%)
- respondents who agreed or strongly agreed that the medication was pleasant based on the child's reaction (14 patients, granules for suspension): 10 (71.5%)
